For this assay, the target named is T1, SPRY1 (Sprouty RTK signaling antagonist 1), mouse, 3×FLAG-tagged (mouse) (UniProt Q9QXV9).
T1 sequence: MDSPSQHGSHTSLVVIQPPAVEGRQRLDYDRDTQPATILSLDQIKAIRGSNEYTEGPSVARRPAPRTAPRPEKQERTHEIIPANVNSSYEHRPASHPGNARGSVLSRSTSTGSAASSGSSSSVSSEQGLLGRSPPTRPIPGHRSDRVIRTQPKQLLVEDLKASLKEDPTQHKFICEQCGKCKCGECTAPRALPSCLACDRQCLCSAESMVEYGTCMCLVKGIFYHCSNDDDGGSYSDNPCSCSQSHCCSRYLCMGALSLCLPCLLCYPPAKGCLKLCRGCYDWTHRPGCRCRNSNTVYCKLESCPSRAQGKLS
Nature of the assay: co-IP; mouse keratinocytes transfected with FLAG-spry1, HA-dgat2 or both, 72 h; RIPA lysis buffer with protease and phosphatase inhibitors; anti-FLAG antibody-conjugated magnetic beads, 4°C, 4 h; western blot. On the technique in general: A western blot detects proteins with antibodies after separation by electrophoresis.

Results are given in words; binding and its absence hold for the method and conditions named. In cells and extracts the contact can be indirect. Some binding calls cover weakened binding; strength is not graded here. Tags and fused reporters may be left off the sequences shown.

B1: DGAT2 (diacylglycerol acyltransferase 2), mouse, 3×HA-tagged (enzyme, UniProt Q9DCV3 1-388)
chain: MKTLIAAYSGVLRGERRAEAARSENKNKGSALSREGSGRWGTGSSILSALQDIFSVTWLNRSKVEKQLQVISVLQWVLSFLVLGVACSVILMYTFCTDCWLIAVLYFTWLAFDWNTPKKGGRRSQWVRNWAVWRYFRDYFPIQLVKTHNLLTTRNYIFGYHPHGIMGLGAFCNFSTEATEVSKKFPGIRPYLATLAGNFRMPVLREYLMSGGICPVNRDTIDYLLSKNGSGNAIIIVVGGAAESLSSMPGKNAVTLKNRKGFVKLALRHGADLVPTYSFGENEVYKQVIFEEGSWGRWVQKKFQKYIGFAPCIFHGRGLFSSDTWGLVPYSKPITTVVGEPITVPKLEHPTQKDIDLYHAMYMEALVKLFDNHKTKFGLPETEVLEVN
B1: the binding entry is “binds”.

The values are drawn from article PMC12487672.
